# Experimental data published in PubChem BioAssay AID2685 (National Center for Advancing Translational Sciences (NCATS), 2010).
# This is one part of the list. Shown are side measurements of this screen, not its main read-out; they come without a call. Compounds called inactive in the main read-out are mostly missing here. The note in brackets gives the kind of curve behind each potency; many fits are weak.
# Assay: qHTS Assay for Lipid Storage Modulators in Drosophila S3 Cells;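 as to cell number change: cells counted by Cell Tracker Red CMTPX staining in the red channel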
# Conditions: BODIPY lipid droplet fluorescence, 18-24 h; for cell number change: measured here: cell count max response, cells fed with added oleic acid
# Method in brief: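 Laser-scanning cytometry quantifies lipid droplet accumulation (500–530 nm total intensity; droplet/cell object ratio) in oleic acid-fed (400 uM added) Drosophila S3 cells treated with a concentration series. 20 uM Triacsin C defined 100% inhibition.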
# [1] = measured here: cell number channel AC50, cells fed with added oleic acid
# [2] = measured here: lipid fluorescence (Fed channel) AC50, cells fed with added oleic acid
Compound,cell number change,AC50 [1],AC50 [2]
CC(NC(=O)CSc1ncccn1)c1ccc(Cl)cc1Cl (stereo not drawn),-0.855%,"0.00517 µM [falling, full curve, poor fit]","2.91 µM [falling, single point]"
Cn1c(C23CC4CC(CC(C4)C2)C3)n[nH]c1=S,8.75%,"6.51 µM [rising, partial curve, poor fit]","0.103 µM [falling, full curve]"
Cc1ccc(S(=O)(=O)N2CCN(C(=O)CCCN3C(=O)NC4(CCCC4)C3=O)CC2)cc1C,9.03%,,"0.58 µM [rising, full curve]"
COc1ccc(C(=O)COC(=O)CCS(=O)(=O)c2ccc(C)cc2)c(OC)c1,100%,"29.1 µM [rising, single point]","29.1 µM [falling, single point]"
CCOc1ncccc1C(=O)OCC(=O)c1ccc[nH]1,-8.16%,,"0.13 µM [falling, full curve, poor fit]"
Cc1nnc(-c2ccc(N3CCCCCC3)c([N+](=O)[O-])c2)o1,21.6%,,"1.84 µM [rising, partial curve]"
COc1ccc(CN(C(=O)c2oc3ccc(F)cc3c2C)C2CCS(=O)(=O)C2)cc1 (stereo not drawn),-26.7%,,"29.1 µM [falling, single point]"
CC(C)CCNC(=O)c1onc(CSc2nc3ccccc3[nH]2)c1C(=O)NCCC(C)C,-2.99%,,
Cn1ncc(Cl)c1C(=O)NNC(=O)Nc1cccc2ccccc12,-18.1%,"0.206 µM [falling, full curve, poor fit]",
O=C1CCN1C1(C(=O)NC2CCCCC2)CCCC1,-51.8%,"32.6 µM [falling, single point]","29.1 µM [falling, single point]"
CCOC(=O)C(C(=O)N1CCOCC1)C1CCCCC1 (stereo not drawn),-32.7%,"0.326 µM [falling, full curve, poor fit]","20.6 µM [falling, single point]"
Cc1ccc(CNC(=O)C2CCC(=O)N(CCc3ccc(Cl)cc3)C2)s1 (stereo not drawn),13.9%,,
CCOc1ccc(NC(=O)c2cccc(NC(=O)c3ccccc3)c2)cc1,24.9%,,"23.1 µM [falling, single point]"
COCc1cc(C)nc(OCC(=O)N/N=C/c2ccc(-c3cc([N+](=O)[O-])ccc3C)o2)c1C#N,,"0.731 µM [rising, single point]",
O=C(Nc1ccc(Cl)cc1F)C1CCN(S(=O)(=O)c2cccnc2)CC1,2.4%,,
Fc1ccc(/C=N/NC(=S)Nc2ccc(Cl)cc2)cc1F,6.41%,,"6.51 µM [rising, single point]"

# Quoted from above, 2 compounds:
Compound,cell number change,AC50 [1],AC50 [2]
CCOC(=O)C(C(=O)N1CCOCC1)C1CCCCC1 (stereo not drawn),-32.7%,"0.326 µM [falling, full curve, poor fit]","20.6 µM [falling, single point]"
Cc1ccc(CNC(=O)C2CCC(=O)N(CCc3ccc(Cl)cc3)C2)s1 (stereo not drawn),13.9%,,
